Test results taken from patent US8426202B2, “Cell culture medium” (Cellca GmbH, priority 2005, dated 2013).
Values joined by “and” are separate entries in the source; they are usually repeats but may differ in a detail not shown here. Equal values may be shown once.

Test system: CHO cell line that expresses an antibody
Experiment: Fed-batch experiment with the substances according to the invention (Example 2, Table 2)
Type: cell-based, Chinese hamster
Description: Feed took place at regular intervals.

**Q.** How did the Glucose (day 2, fed-batch) turn out when O=C(O)CCCCC(=O)O [Adipic acid] was run?
**A.** 4.2 g/L and 4.22 g/L

**Q.** What about the Lactate (day 2, fed-batch) of the same compound?
**A.** 0.42 g/L

**Q.** And the Glucose (day 5, fed-batch)?
**A.** 7.33 g/L and 7.26 g/L

**Q.** What about the Lactate (day 5, fed-batch) of the same compound?
**A.** 0.88 g/L

**Q.** What about the Glucose (day 8, fed-batch) of the same compound?
**A.** 10.89 g/L and 10.65 g/L

**Q.** And the Lactate (day 8, fed-batch)?
**A.** 1.1 g/L and 1.12 g/L

**Q.** With O=C(O)CC(O)C(=O)O (stereo not drawn) [Malic acid] as the compound, how does the Glucose (day 2, fed-batch) read?
**A.** 4.09 g/L and 4.1 g/L

**Q.** And the Lactate (day 2, fed-batch)?
**A.** 0.45 g/L

**Q.** And the Glucose (day 5, fed-batch)?
**A.** 6.6 g/L and 6.7 g/L

**Q.** And the Lactate (day 5, fed-batch)?
**A.** 1.1 g/L and 1.09 g/L

**Q.** And the Glucose (day 8, fed-batch)?
**A.** 9.2 g/L and 9.38 g/L

**Q.** And the Lactate (day 8, fed-batch)?
**A.** 1.32 g/L

**Q.** NCCC[C@H](N)C(=O)O [Ornithine] was tested. Which Glucose (day 2, fed-batch) did it give?
**A.** 4.24 g/L and 4.26 g/L

**Q.** What about the Lactate (day 2, fed-batch) of the same compound?
**A.** 0.46 g/L and 0.45 g/L

**Q.** And the Glucose (day 5, fed-batch)?
**A.** 6.96 g/L and 6.9 g/L

**Q.** What about the Lactate (day 5, fed-batch) of the same compound?
**A.** 1.03 g/L

**Q.** And the Glucose (day 8, fed-batch)?
**A.** 9.85 g/L and 9.72 g/L

**Q.** And the Lactate (day 8, fed-batch)?
**A.** 1.23 g/L

**Q.** O=C([O-])/C=C/C(=O)[O-].[Na+].[Na+] [Sodium fumarate] was tested. Which Glucose (day 2, fed-batch) did it give?
**A.** 4.14 g/L and 4.17 g/L

**Q.** And the Lactate (day 2, fed-batch)?
**A.** 0.44 g/L

**Q.** What about the Glucose (day 5, fed-batch) of the same compound?
**A.** 6.79 g/L and 6.75 g/L

**Q.** And the Lactate (day 5, fed-batch)?
**A.** 1.13 g/L and 1.12 g/L

**Q.** What about the Glucose (day 8, fed-batch) of the same compound?
**A.** 9.46 g/L and 9.32 g/L

**Q.** What about the Lactate (day 8, fed-batch) of the same compound?
**A.** 1.39 g/L and 1.38 g/L

**Q.** Which Glucose (day 2, fed-batch) does the source give for CC(O)C(=O)[O-].[Na+] (stereo not drawn) [Sodium lactate] here?
**A.** 4.32 g/L and 4.34 g/L

**Q.** What about the Lactate (day 2, fed-batch) of the same compound?
**A.** 0.93 g/L

**Q.** And the Glucose (day 5, fed-batch)?
**A.** 7.03 g/L and 7.02 g/L

**Q.** What about the Lactate (day 5, fed-batch) of the same compound?
**A.** 1.47 g/L and 1.45 g/L

**Q.** What about the Glucose (day 8, fed-batch) of the same compound?
**A.** 9.52 g/L and 9.45 g/L

**Q.** And the Lactate (day 8, fed-batch)?
**A.** 1.75 g/L and 1.73 g/L

**Q.** For CC(=O)C(=O)[O-].[Na+] [Sodium pyruvate], which Glucose (day 2, fed-batch) is on record?
**A.** 4.4 g/L

**Q.** And the Lactate (day 2, fed-batch)?
**A.** 0.27 g/L

**Q.** What about the Glucose (day 5, fed-batch) of the same compound?
**A.** 7.02 g/L

**Q.** What about the Lactate (day 5, fed-batch) of the same compound?
**A.** 1.2 g/L

**Q.** And the Glucose (day 8, fed-batch)?
**A.** 9.44 g/L

**Q.** What about the Lactate (day 8, fed-batch) of the same compound?
**A.** 1.8 g/L

**Q.** Which results are given for O=C([O-])CCC(=O)[O-].[Na+].[Na+] [Sodium succinate]?
**A.** Glucose (day 2, fed-batch): 3.91 g/L and 4.04 g/L; Lactate (day 2, fed-batch): 0.46 g/L and 0.47 g/L; Glucose (day 5, fed-batch): 6.27 g/L and 6.63 g/L; Lactate (day 5, fed-batch): 1.15 g/L and 1.18 g/L; Glucose (day 8, fed-batch): 8.44 g/L and 8.98 g/L; Lactate (day 8, fed-batch): 1.34 g/L and 1.42 g/L

**Q.** Which Glucose (day 2, fed-batch) does the source give for O=C(O)C(O)C(O)C(=O)O (stereo not drawn) [Tartaric acid] here?
**A.** 4.37 g/L and 4.39 g/L

**Q.** What about the Lactate (day 2, fed-batch) of the same compound?
**A.** 0.32 g/L and 0.3 g/L

**Q.** And the Glucose (day 5, fed-batch)?
**A.** 7.69 g/L and 7.34 g/L

**Q.** What about the Lactate (day 5, fed-batch) of the same compound?
**A.** 0.51 g/L and 0.5 g/L

**Q.** What about the Glucose (day 8, fed-batch) of the same compound?
**A.** 11.22 g/L and 10.34 g/L

**Q.** And the Lactate (day 8, fed-batch)?
**A.** 0.69 g/L and 0.68 g/L

**Q.** Which Glucose (day 2, fed-batch) does the source give for O=C(O)CCC(=O)C(=O)O [α-Keto-glutarate] here?
**A.** 4.25 g/L and 4.26 g/L

**Q.** And the Lactate (day 2, fed-batch)?
**A.** 0.34 g/L and 0.33 g/L

**Q.** What about the Glucose (day 5, fed-batch) of the same compound?
**A.** 7.15 g/L

**Q.** What about the Lactate (day 5, fed-batch) of the same compound?
**A.** 0.76 g/L

**Q.** And the Glucose (day 8, fed-batch)?
**A.** 9.75 g/L

**Q.** What about the Lactate (day 8, fed-batch) of the same compound?
**A.** 1.06 g/L
